For part of these data: At least one read-out could not be matched to a standard name with certainty. For part of these data: At least one structure is not confirmed: it was looked up by name or label, or the drawing left a doubt.
Assays:
B16 melanoma tumor = assay: Antitumor activity in vivo, solid tumor of B-16 mouse melanoma; design: species or system mice
[1] = clinical trials; cited from earlier work

Cn1nnc2c(C(N)=O)ncn2c1=O [Temozolomide Substance, 8-carbamoyl-3-methyl-imidazo[5,1-d]-1,2,3,5-tetrazin-4-(3H)-one]
course of tumor growth inhibition after withdrawal (B16 melanoma tumor; 40 mg/kg, after withdrawal): its effect decreases fast after withdrawal
tumor growth inhibition, 60 mg/kg compared with 40 mg/kg (B16 melanoma tumor; 60 mg/kg): more efficient than that dosed as 40 mg/kg
time to reach Cmax [1]: 0.7 h
